From PubChem BioAssay AID493014 (National Center for Advancing Translational Sciences (NCATS), 2011)
The list shows a part of the results. The main result of the screen is listed elsewhere. These columns were measured beside it and carry no call. Compounds called inactive in the main read-out are mostly missing here. Words in brackets tell the shape of the fitted curve; partial curves, single points and poor fits give uncertain potencies.

Test: qHTS Assay to Find Inhibitors of Chronic Active B-Cell Receptor Signaling
Conditions: ABC-DLBCL IkBa-CBG/CBR reporter, luminescence ratio (green luciferase fused to IkBa over red control in TMD8 lymphoma cells), 4 h
Procedure, shortened: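 Doxycycline induced both beetle luciferases in TMD8 lymphoma cells; IKK-driven degradation limits the IkappaBalpha-fused green signal, while red luminescence normalises for cell number and nonspecific effects. Compounds tested up to 46 uM, 4 hrs.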

[1] = measured here: CBR red luminescence, cell number
[2] = measured here: IkBa-CBG green luminescence

SMILES | AC50 [1] | AC50 [2]
CC(CN1CCCCC1)OC(=O)c1cccc(F)c1 (configuration not stated) | 14.1 µM [rising, partial curve, poor fit] | 
O=C(CCCOc1ccccc1)N1CCN(S(=O)(=O)c2cccs2)CC1 | 6.51 µM [rising, single point] | 
COc1cc(OC)c(OC)cc1/C=N/n1c(COc2ccccc2)n[nH]c1=S | 0.0891 µM [rising, full curve, poor fit] | 
O=C(NCCCn1ccnc1)Nc1cccc(Cl)c1 | 3.66 µM [rising, partial curve, poor fit] | 
Cc1ccccc1-c1nc(-c2ccccn2)no1 | 10 µM [falling, partial curve] | 
COc1cc(-c2n[nH]c(=S)n2-c2ccc(Br)cc2)cc(OC)c1OC | 35.5 µM [rising, single point] | 
O=C(NCC(O)c1ccccc1)c1cccs1 (configuration not stated) | 12.6 µM [falling, partial curve, poor fit] | 
Cc1c(C(=O)N2CCN(C)CC2)oc2c1C(=O)CC(C)(C)C2 | 0.731 µM [falling, partial curve, poor fit] | 
O=C(Nc1nc2ccccc2[nH]1)c1ccc(F)cc1 | 1.78 µM [falling, full curve] | 
CCN(c1ccccc1)S(=O)(=O)c1ccc(NC(=O)c2nc(S(C)(=O)=O)ncc2Cl)cc1 | 11.2 µM [falling, partial curve, poor fit] | 
CC(NC(=O)c1cc2ccccc2o1)c1cccs1 (configuration not stated) | 9.2 µM [falling, partial curve, poor fit] | 
COc1ccc2c(CCNC(=O)CN3C(=O)c4ccccc4C3=O)c[nH]c2c1 | 20.6 µM [rising, partial curve, poor fit] | 
S=C(NCc1ccccn1)Nc1ccc(Cl)cc1 | 35.5 µM [falling, single point] | 
CSc1nnc(NC(=O)c2nc(S(=O)(=O)Cc3cccc(C)c3)ncc2Cl)s1 | 22.4 µM [falling, single point] | 
C=C(C)c1cccc(C(C)(C)NC(=O)N2CCCC(C(N)=O)C2)c1 (configuration not stated) | 32.6 µM [rising, partial curve, poor fit] | 
Cc1ccc(NC(=O)C2C3C=CC(O3)C2C(=O)O)cc1C (configuration not stated) | 12.6 µM [rising, partial curve, poor fit] | 
Cn1c(/C=N/NC(=O)c2ccccc2)nc2ccccc21 | 11.2 µM [falling, partial curve] | 
NNC(=O)CNC(c1ccccc1)c1cc(Br)ccc1NC(=O)c1ccccc1Br (configuration not stated) | 15.8 µM [falling, single point] | 
Cc1ccc(-c2cc(N)n(-c3ccccc3)n2)cc1 | 20 µM [falling, partial curve, poor fit] | 
C=CCOc1ccc(CNn2c(C)n[nH]c2=S)cc1OC | 1.26 µM [falling, full curve] | 
c1cncc(CNCc2ccco2)c1 | 0.112 µM [rising, full curve, poor fit] | 
C=CCOc1ccc(C2=NO[C@@H]3[C@@H]4C[C@@H]([C@H]5C(=O)N(C)C(=O)[C@@H]45)[C@H]23)cc1 | 6.31 µM [rising, partial curve, poor fit] | 

SMILES | AC50 [1] | AC50 [2]
Cc1ccc2c(CC(=O)Nc3c(C)n(C)n(-c4ccccc4)c3=O)coc2c1 | 29.1 µM [rising, single point] | 
Cn1nnnc1SCc1ccccc1F | 9.2 µM [rising, partial curve, poor fit] | 
C[C@H](NC(=O)c1nc[nH]c1C(=O)N1CCc2ccccc2C1)C(=O)OC(C)(C)C | 35.5 µM [rising, single point] | 
O=C1C(Cl)=C(Nc2ccccc2O)C(=O)N1CCc1ccccc1 | 8.2 µM [falling, partial curve] | 
O=C(NCC(=O)N(c1cccnc1)C(C(=O)NC1CCCC1)c1ccc(F)cc1)c1ccco1 (configuration not stated) | 2.82 µM [rising, single point] | 
COc1cccc(CNc2cc(CSc3ccc(Cl)cc3)nc(C)n2)c1 | 2.59 µM [falling, full curve, poor fit] | 
N#CCCN(Cc1cccnc1)C(=O)Nc1ccc(Cl)c(Cl)c1 | 32.6 µM [rising, single point] | 
Clc1cccc(CN2CCC(Cc3ccccc3)CC2)c1 | 11.2 µM [rising, partial curve, poor fit] | 
COc1cc2c(cc1OC)C(C)N(C(=O)c1cc(C)on1)CC2 (configuration not stated) | 11.2 µM [rising, partial curve] | 10 µM [falling, partial curve]
CCc1ccc(/C=C2/SC(=S)N(CCC(=O)Nc3ccc(C(=O)O)cc3)C2=O)cc1 | 2.51 µM [falling, partial curve, poor fit] | 
C=C(C)C1CC=C(C)/C(=N/NC(=O)c2ccoc2C)C1 (configuration not stated) | 23.1 µM [falling, single point] | 
O=[N+]([O-])c1ccc(N=Nc2ncc[nH]2)cc1 | 6.31 µM [falling, full curve, poor fit] | 
CN(C)/C=N/C1=C(C#N)C(c2ccc(Br)cc2)c2ccc3ccccc3c2O1 (configuration not stated) | 0.447 µM [rising, full curve, poor fit] | 
CCN(CC)S(=O)(=O)c1cc([N+](=O)[O-])ccc1N=Nc1c(O)[nH]c2ccccc12 | 20.6 µM [rising, partial curve, poor fit] | 
CCOc1cc(NC(=S)NCCCN2CCOCC2)c(OCC)cc1NC(=O)C(C)C | 20.6 µM [rising, single point] | 
CC1CC(C)(C)Nc2ccc(OC(=O)c3ccco3)cc21 (configuration not stated) | 7.94 µM [falling, partial curve] | 
CC1(c2ccc(Cl)cc2)NC(=O)N(CC(=O)NCc2ccc(F)cc2)C1=O (configuration not stated) | 35.5 µM [falling, single point] | 
NS(=O)(=O)c1ccc(CCNC(=O)c2ccc(C#CC3(O)CCCCC3)cc2)cc1 | 6.31 µM [rising, single point] | 
CCOC(=O)C1=C(N)Oc2cc(O)ccc2C1c1ccc(C)cc1 (configuration not stated) | 12.6 µM [falling, partial curve, poor fit] | 
C/C(=N\OCC(=O)OCC(=O)NCc1ccccc1)c1ccc2c(c1)OCO2 | 20.6 µM [rising, single point] | 
O=C(NC1=NCCS1)c1ccc2c(c1)C(=O)N(Cc1ccco1)C2=O | 32.6 µM [falling, single point] | 
O=C(NN=C1CCCCCC1)c1ccc(Br)o1 | 18.4 µM [falling, single point] | 

SMILES | AC50 [1] | AC50 [2]
CCC(=O)NC(=S)Nc1ccc(NC(=O)c2ccccc2[N+](=O)[O-])cc1 | 20.6 µM [falling, single point] | 
CCOc1cc(C=O)cc(Br)c1OCC(=O)NCCc1ccccc1 | 35.5 µM [falling, single point] | 
N#C/C(=C\c1ccc(F)cc1)c1nc(-c2ccco2)cs1 | 0.82 µM [rising, full curve] | 
CCOc1ccc(C(=O)Nc2ccc3c(c2)C(=O)NC3=O)cc1 | 0.316 µM [falling, full curve] | 
CC1=[N+](C)c2ccc3ccccc3c2C1(C)C | 0.461 µM [rising, full curve, poor fit] | 
N#C/C(=C/c1ccc(N2CCCCCC2)o1)c1ccc(Cl)cc1 | 2.31 µM [falling, partial curve, poor fit] | 
CCc1nc2ccc(C(=O)N3CCN(c4cccc(Cl)c4)CC3)cc2nc1CC | 15.8 µM [falling, single point] | 
CCOC(=O)C1(CC2CCCCO2)CCN(Cc2c(C)cc(C)cc2-n2cccn2)CC1 (configuration not stated) | 35.5 µM [falling, single point] | 
N/C(=N\OC(=O)C12CC3CC(CC(C3)C1)C2)c1ccccc1 | 3.98 µM [falling, partial curve, poor fit] | 
O=C(O)c1ccc(NC(=O)c2ccc(COc3ccc(Cl)cc3)o2)cc1 | 0.112 µM [rising, full curve, poor fit] | 
Cn1ncc([N+](=O)[O-])c1C(=O)Nc1ccc(-c2ccccc2)cc1 | 0.178 µM [rising, full curve, poor fit] | 
CCC(=O)N(CCC(Cc1ccccc1)c1ccco1)Cc1ccco1 (configuration not stated) | 35.5 µM [falling, single point] | 
O=C(CC1NC(=S)NC1=O)c1ccc(Cl)cc1 (configuration not stated) | 5.62 µM [rising, full curve, poor fit] | 
CCn1ccnc1CN(C)C(=O)c1cc(COc2ccccc2SC)on1 | 5.62 µM [rising, single point] | 
COc1cc(CC(=O)OCC(=O)NC(C)c2ccccc2)cc(OC)c1OC (configuration not stated) | 16.4 µM [rising, partial curve, poor fit] | 
COc1ccc2[nH]c(-c3cccc(F)c3)cc(=O)c2c1 | 2.31 µM [rising, partial curve, poor fit] | 5.8 µM [falling, single point]
O=C(CNC(=O)c1ccc(Cl)cc1)N/N=C/c1cccnc1 | 17.8 µM [rising, single point] | 
CCOc1nc(NCCO)nc(NCCC2=CCCCC2)n1 | 4.11 µM [rising, full curve, poor fit] | 
CCOC(=O)Cc1csc(N/N=C\c2ccccc2OC)n1 | 25.1 µM [falling, single point] | 
Cc1c(Br)c(C(F)(F)F)nn1CC(=O)NCC1CCCO1 (configuration not stated) | 15.8 µM [rising, partial curve, poor fit] | 
CCCc1cc(N2CCCC2)n2nc(C)c(-c3ccccc3)c2n1 | 1.16 µM [rising, full curve, poor fit] | 

Three compounds already listed, arranged by number of heavy atoms, largest number first:
SMILES | AC50 [1] | AC50 [2]
CCC(=O)NC(=S)Nc1ccc(NC(=O)c2ccccc2[N+](=O)[O-])cc1 | 20.6 µM [falling, single point] | 
O=C(CNC(=O)c1ccc(Cl)cc1)N/N=C/c1cccnc1 | 17.8 µM [rising, single point] | 
CC1=[N+](C)c2ccc3ccccc3c2C1(C)C | 0.461 µM [rising, full curve, poor fit] | 

A second format for some results above:
CCN(CC)S(=O)(=O)c1cc([N+](=O)[O-])ccc1N=Nc1c(O)[nH]c2ccccc12
  AC50 [1]: 20.6 µM [rising, partial curve, poor fit]
CCOc1ccc(C(=O)Nc2ccc3c(c2)C(=O)NC3=O)cc1
  AC50 [1]: 0.316 µM [falling, full curve]
